Our source for the binding values is PMC5356633, “Arctigenin functions as a selective agonist of estrogen receptor β to restrict mTORC1 activation and consequent Th17 differentiation” (Oncotarget, 2016).

Chains of the proteins cited; added tags and fusions are not shown.
UniProt Q8K4Q0: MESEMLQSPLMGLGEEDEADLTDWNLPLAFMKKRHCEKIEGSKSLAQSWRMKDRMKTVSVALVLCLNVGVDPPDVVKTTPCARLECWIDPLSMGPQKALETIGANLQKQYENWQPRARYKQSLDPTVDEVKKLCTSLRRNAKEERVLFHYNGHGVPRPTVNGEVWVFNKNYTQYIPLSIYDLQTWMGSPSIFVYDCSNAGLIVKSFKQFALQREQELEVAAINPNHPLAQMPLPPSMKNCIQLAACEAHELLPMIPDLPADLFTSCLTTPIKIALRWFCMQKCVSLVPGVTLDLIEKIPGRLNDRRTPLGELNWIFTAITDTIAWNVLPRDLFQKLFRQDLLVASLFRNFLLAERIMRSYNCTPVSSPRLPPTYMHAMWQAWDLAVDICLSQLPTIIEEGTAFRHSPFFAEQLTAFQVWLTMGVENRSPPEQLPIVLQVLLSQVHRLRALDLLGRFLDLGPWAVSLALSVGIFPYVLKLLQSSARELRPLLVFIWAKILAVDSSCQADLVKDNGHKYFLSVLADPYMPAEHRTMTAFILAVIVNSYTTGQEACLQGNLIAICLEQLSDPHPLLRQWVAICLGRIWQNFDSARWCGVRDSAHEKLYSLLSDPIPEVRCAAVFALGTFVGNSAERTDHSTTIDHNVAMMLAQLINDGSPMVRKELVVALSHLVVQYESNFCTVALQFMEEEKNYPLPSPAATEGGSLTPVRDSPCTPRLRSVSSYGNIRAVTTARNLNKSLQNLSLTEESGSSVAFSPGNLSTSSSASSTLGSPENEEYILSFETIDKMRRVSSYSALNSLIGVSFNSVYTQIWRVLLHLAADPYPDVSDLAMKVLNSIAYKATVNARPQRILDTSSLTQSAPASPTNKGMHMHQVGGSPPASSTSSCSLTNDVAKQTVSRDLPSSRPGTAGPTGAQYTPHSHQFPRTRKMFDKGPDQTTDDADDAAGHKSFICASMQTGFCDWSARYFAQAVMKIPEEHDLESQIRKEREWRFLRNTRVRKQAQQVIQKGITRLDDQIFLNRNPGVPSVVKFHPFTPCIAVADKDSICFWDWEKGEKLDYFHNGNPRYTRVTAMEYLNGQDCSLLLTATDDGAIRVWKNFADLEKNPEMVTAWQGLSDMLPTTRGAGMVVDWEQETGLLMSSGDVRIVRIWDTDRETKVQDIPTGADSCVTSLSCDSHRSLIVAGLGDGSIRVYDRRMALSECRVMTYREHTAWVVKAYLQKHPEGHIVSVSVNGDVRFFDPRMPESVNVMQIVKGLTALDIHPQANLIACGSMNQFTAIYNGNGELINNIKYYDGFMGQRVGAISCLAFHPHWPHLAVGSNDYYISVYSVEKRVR
UniProt O08537: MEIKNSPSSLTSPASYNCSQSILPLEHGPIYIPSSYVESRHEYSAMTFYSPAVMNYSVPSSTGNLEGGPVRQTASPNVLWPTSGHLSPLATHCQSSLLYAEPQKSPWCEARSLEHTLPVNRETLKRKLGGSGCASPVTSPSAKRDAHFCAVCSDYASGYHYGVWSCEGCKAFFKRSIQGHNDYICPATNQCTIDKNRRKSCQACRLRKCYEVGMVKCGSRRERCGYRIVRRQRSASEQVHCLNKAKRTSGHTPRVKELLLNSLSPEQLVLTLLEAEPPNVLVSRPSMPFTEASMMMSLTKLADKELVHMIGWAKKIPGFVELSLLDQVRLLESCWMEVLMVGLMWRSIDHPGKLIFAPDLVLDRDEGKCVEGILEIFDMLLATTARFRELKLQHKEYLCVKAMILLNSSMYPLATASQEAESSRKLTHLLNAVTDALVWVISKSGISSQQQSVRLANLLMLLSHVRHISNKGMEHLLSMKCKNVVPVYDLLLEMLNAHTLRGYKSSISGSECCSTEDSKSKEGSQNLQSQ

No constants are given. Whether binding was seen depends on the method and setting. Binding seen in cells or lysates may run through a third protein. Some results given as binding are weak or reduced against the parent protein; the word gives no strength.

The assay deals with regulatory-associated protein of mTOR (raptor) (mouse (endogenous in EL4)) (UniProt Q8K4Q0). The assay can be described thus: co-IP; serum-starved EL4 cells treated with or without arctigenin (10 μM), E2 (1 μM) or PHTPP (0.1 μM), or control siRNA or ERβ siRNA, for 24 h; NP40 lysis buffer; lysate incubated overnight at 4 °C with 2 μg anti-raptor, protein A/G agarose beads; immunoblot.

On to “estrogen receptor β (from UniProt O08537 1-530)”, for which the binding entry is on record as “binds”.
